According to ChEMBL document CHEMBL5154776, “Discovery of Potent and Orally Bioavailable Platelet-Derived Growth Factor Receptor (PDGFR) Inhibitors for the Treatment of Osteosarcoma” (J Med Chem, 2022):

Experiments:
[1] = system: SAOS-2; assay: Antiproliferative activity against human SAOS-2 cells assessed as reduction in cell viability incubated for 48 hrs by MTT assay; conditions: SAOS-2, 48 h
[2] = system: MG-63; assay: Antiproliferative activity against human MG-63 cells assessed as reduction in cell viability incubated for 48 hrs by MTT assay; conditions: MG-63, 48 h
[3] = system: U2OS; assay: Antiproliferative activity against human U2OS cells assessed as reduction in cell viability incubated for 48 hrs by MTT assay

IC50 [3]: 27.2 µM
SMILES: Cc1ccc(NC(=O)c2ccc(CN3CCN(C)CC3)cc2)cc1Nc1nccc(-c2cccnc2)n1 [IMATINIB]
IC50 [1]: 15 µM
IC50 [2]: 31.7 µM
